Data published in article PMC3364120 (British Journal of Cancer, 2012).
Where two headings read alike, the source gives them in different places.

What was measured:
Experiment in all cases: cells
[1] = system: phosphorylated Crkl (p-Crkl); conditions: Homo sapiens
[2] = system: phosphorylated Crkl (p-Crkl); conditions: Homo sapiens, KU812, 2 h, read-out: IC50imatinib, KU812, no NSAIDs
[3] = system: phosphorylated Crkl (p-Crkl); conditions: Homo sapiens, K562, 2 h, read-out: IC50imatinib, K562, no NSAIDs

Q: With `Cc1ccc(NC(=O)c2ccc(CN3CCN(C)CC3)cc2)cc1Nc1nccc(-c2cccnc2)n1` [imatinib] as the compound, how does the IC50 ([1]; 2 h, read-out: range of IC50imatinib) read?
A: 0.25 to 1.15 µM

Q: What about the IC50 ([1]; read-out: median IC50imatinib) of the same compound?
A: 1.2 µM

Q: What about the IC50 ([1]; read-out: range of IC50imatinib) of the same compound?
A: 0.5 to 1.7 µM

Q: What about the IC50 [2] of the same compound?
A: 3.5 ± 0.6 µM

Q: And the IC50 [3]?
A: 5.7 ± 0.8 µM
